Source: PubChem BioAssay AID493014 (National Center for Advancing Translational Sciences (NCATS), 2011)
Some of the results follow. Further columns of the screen follow, without active or inactive calls. The list favours compounds with an active or inconclusive main result. The note in brackets gives the kind of curve behind each potency; many fits are weak.

Assay: qHTS Assay to Find Inhibitors of Chronic Active B-Cell Receptor Signaling
Conditions: ABC-DLBCL IkBa-CBG/CBR reporter, luminescence ratio (green luciferase fused to IkBa over red control in TMD8 lymphoma cells), 4 h
Summary of the method: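 Doxycycline induced both beetle luciferases in TMD8 lymphoma cells; IKK-driven degradation limits the IkappaBalpha-fused green signal, while red luminescence normalises for cell number and nonspecific effects. Compounds tested up to 46 uM, 4 hrs.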

[1] = measured here: CBR red luminescence, cell number
[2] = measured here: IkBa-CBG green luminescence

Compound | AC50 [1] | AC50 [2]
O=C(Nc1cccc(S(=O)(=O)N2CCCC2)c1)c1cncc(Br)c1 | 29.1 µM [falling, single point] | –
COc1cc(OC)c2c(-c3cccc(-c4ccc(OC)c(OC)c4)c3)cc(=O)oc2c1 | 0.82 µM [rising, full curve, poor fit] | –
Cc1nnc(NC(=O)Cn2c(=O)sc3ccccc32)s1 | 18.4 µM [rising, partial curve] | –
Cc1ccc(OCCCc2c(C)n[nH]c2C)cc1 | 35.5 µM [rising, partial curve, poor fit] | –
CS(=O)(=O)c1ccc(Cl)c(NC(=O)c2cccc(N3C(=O)CCC3=O)c2)c1 | 20.6 µM [rising, single point] | –
COCCNC(=O)COc1ccc(C)cc1C | 0.651 µM [rising, full curve] | –
Cc1nnc(N/N=C\c2ccc(-c3cccc(C(=O)O)c3)o2)n1N | 11.2 µM [falling, partial curve] | –
Cc1nc(-c2cccc(NC(=O)c3ccc(Br)o3)c2)cs1 | 3.16 µM [falling, partial curve, poor fit] | –
COc1ccc(C(=O)NNC(=O)Cc2nc3ccccc3n2C)cc1 | 4.11 µM [rising, single point] | –
CCCCCn1c(C)c2c(OCC)cccc(=O)c2c1C | 3.98 µM [rising, partial curve, poor fit] | –
COc1ccc(C(=O)Nc2ccc(S(=O)(=O)NC(C)C)cc2)cc1 | 29.1 µM [falling, single point] | –
Cc1ccc(NC(=O)c2sc3nc(N)c(C#N)cc3c2N)cc1 | 9.2 µM [falling, partial curve, poor fit] | –
Brc1ccc(-c2cn3ccccc3n2)s1 | 0.184 µM [rising, partial curve, poor fit] | –
CC1=CC(=O)C=C(C)C1=NOC(=O)/C=C\c1ccccc1 | 29.1 µM [falling, single point] | –
O=C(Nc1ncc2c(n1)-c1ccccc1OC2)c1cccc([N+](=O)[O-])c1 | 8.91 µM [falling, partial curve] | 25.1 µM [rising, partial curve, poor fit]
CC(C)(C)OC(=O)N1CCN(C(=O)c2ncn(Cc3ccccc3)c2C(=O)N2CCN(C(=O)OC(C)(C)C)CC2)CC1 | 2.91 µM [rising, full curve, poor fit] | –
Cc1cc(N2CCN(c3ccccn3)CC2)n2cc(-c3ccccc3)nc2n1 | 9.2 µM [falling, single point] | –
O=C(CSc1ncccc1C(=O)O)c1ccccc1F | 7.94 µM [rising, partial curve] | –
COc1ccc(C2=Nn3c(nnc3-c3ccco3)SC2)cc1 | 29.1 µM [falling, single point] | –
CCOC(=O)N1CCC(=NNC(=O)COc2ccc(OC)cc2)CC1 | 14.6 µM [falling, partial curve, poor fit] | –
O=C(NCCc1ccncc1)Nc1ccccc1Cl | 3.26 µM [falling, full curve] | –

Compound | AC50 [1] | AC50 [2]
CC(C)(C)c1cc(=O)[nH]c(SCc2ccccc2Cl)n1 | 35.5 µM [falling, single point] | –
COc1ccc(NC(=O)N2CCN(c3nc(-c4cccc(OC)c4)cs3)CC2)cc1 | 29.1 µM [falling, single point] | –
COc1ccc(CCNC(=O)Nc2cc(F)c(F)cc2Cl)cc1OC | 3.55 µM [rising, partial curve, poor fit] | –
CC(=O)Nc1ccc(NC(=O)C(C)OC(=O)C2CC(=O)N(CCc3ccccc3)C2)cc1 (stereo not given) | 20.6 µM [rising, partial curve, poor fit] | –
O=C(Nc1cc(Cl)ccc1O)C1CCCO1 (stereo not given) | 12.6 µM [rising, partial curve, poor fit] | –
O=C(Nc1cccc(O)c1)c1noc2c1CCCCC2 | 11.6 µM [falling, partial curve, poor fit] | –
Cc1nc2cc(NC(=O)c3ccc(Br)s3)ccc2s1 | 12.6 µM [falling, partial curve] | –
Cc1ccc(C(=O)c2sc(Nc3ccccc3)c(C#N)c2N)cc1 | 2.31 µM [rising, partial curve] | –
CC[C@@H]1C(c2ccccc2)=NN(c2ccccc2)[C@H]1C(=O)N1CCOC1=O | 1.84 µM [falling, full curve, poor fit] | –
COC(=O)c1c(NC(=O)c2ccccc2OC)sc(C(=O)N2CCOCC2)c1C | 11.2 µM [falling, partial curve] | –
Cc1c(NS(=O)(=O)c2cc(C(=O)NCCN(C)C)ccc2Cl)c(=O)n(-c2ccccc2)n1C | 3.98 µM [rising, partial curve, poor fit] | –
CCOc1cc(/C=C(/C#N)c2nc3ccccc3[nH]2)ccc1OCc1ccc(C(=O)O)o1 | 0.447 µM [falling, full curve, poor fit] | –
Clc1ccc2c(N3CCOCC3)ccnc2c1 | 35.5 µM [rising, single point] | –
C/C=C\C=C/C(=O)Nc1cccc(C2=NOC3(C2)C[C@@H](C(N)=O)N(C(=O)/C=C/CC)C3)c1 (stereo not given in full) | 7.08 µM [falling, partial curve, poor fit] | –
O=C(OCc1c(-c2ccccc2)ncc2ccccc12)N1CCOCC1 | 0.082 µM [rising, full curve, poor fit] | –
COc1ccc2nc(NC(=O)c3cnccn3)sc2c1 | 8.2 µM [falling, partial curve] | –
COc1ccc(N(CC(=O)Nc2ccc3c(c2)OCCO3)S(=O)(=O)c2c(C)nn(C)c2C)cc1 | 1.26 µM [falling, full curve, poor fit] | –
COc1cccc(NC(=O)CSc2nc3c(c(=O)n2C)SC(C)C3)c1 (stereo not given) | 13 µM [falling, partial curve, poor fit] | –
CCc1nc(N)c(C#N)c(-c2ccc(F)cc2)c1C | 23.1 µM [falling, single point] | –
O=C1Nc2ccccc2Oc2cc(Oc3ccc(Cl)cc3)ccc21 | 0.501 µM [rising, full curve, poor fit] | –
O=C(CN1N=C(c2ccc(Cl)cc2)CCC1=O)NCc1ccc(F)cc1 | 0.224 µM [falling, full curve] | –

Nothing new here: 3 of the compounds above.
Compound | AC50 [1] | AC50 [2]
CC(C)(C)OC(=O)N1CCN(C(=O)c2ncn(Cc3ccccc3)c2C(=O)N2CCN(C(=O)OC(C)(C)C)CC2)CC1 | 2.91 µM [rising, full curve, poor fit] | –
Cc1cc(N2CCN(c3ccccn3)CC2)n2cc(-c3ccccc3)nc2n1 | 9.2 µM [falling, single point] | –
O=C(CSc1ncccc1C(=O)O)c1ccccc1F | 7.94 µM [rising, partial curve] | –

Going on with the list:

Compound | AC50 [1] | AC50 [2]
Cc1ccsc1C(=O)NNC(=O)c1ccncc1 | 16.4 µM [falling, single point] | –
O=C(c1c[nH]c2ccccc12)C(F)(F)F | 22.4 µM [rising, single point] | –
CCN(Cc1ccccc1)S(=O)(=O)c1ccc(C(=O)Nc2nnc(C)o2)cc1 | 11.2 µM [rising, partial curve] | –
O=C(CSc1nnnn1-c1ccc(O)cc1)Nc1cccc(S(=O)(=O)N2CCCC2)c1 | 25.9 µM [falling, single point] | –
CC(=O)c1ccc(COC(=O)c2cc3ccccc3oc2=O)cc1 | 3.55 µM [rising, partial curve, poor fit] | –
CC1=C(C)/C(=N\OS(=O)(=O)c2ccc(C)cc2)C=CC1=O | 29.1 µM [falling, single point] | –
CCOc1ccc(C(=O)CSCCC(=O)O)cc1 | 3.55 µM [falling, partial curve, poor fit] | –
COc1ccccc1NC(=O)Cc1csc(NC(=S)Nc2ccc(C)cc2)n1 | 11.2 µM [falling, partial curve, poor fit] | –
CC1(C)C(C=C(Cl)Cl)C1C(=O)N(Cc1ccc(Cl)cc1)C1CCS(=O)(=O)C1 (stereo not given) | 29.1 µM [falling, single point] | –
O=C(NC(=S)Nc1ncccn1)c1ccccc1Br | 12.6 µM [falling, partial curve] | –
CCc1ccc(NC(=O)c2ccc(F)c(S(=O)(=O)NCC3COc4ccccc4O3)c2)cc1 (stereo not given) | 13 µM [falling, partial curve, poor fit] | –
CN1C(C(=O)Nc2ccc(F)cc2F)=CC(c2cccs2)=NS1(=O)=O | 11.2 µM [falling, partial curve, poor fit] | –
Cc1cccc(NC(=S)N/N=C2/CCCCc3ccccc32)c1 | 11.6 µM [rising, partial curve] | –
COc1cc(/C=N/NC(=O)CN2CCCCC2)ccc1OCc1ccc(Br)cc1 | 8.2 µM [rising, partial curve] | –
O=C(NC1CCCCC1)c1cc(-c2ccccc2Cl)on1 | 3.98 µM [falling, full curve] | –
CC1O[C@H](OC2C(COC3OC(CO)C(O)[C@H](O)C3O)OC(OC3CC[C@]4(C)C(CC[C@@]5(C)[C@@H]4C=C[C@]46OC[C@@]7(CCC(C)(C)C[C@H]74)C(O)C[C@@]56C)C3(C)C)C(O)C2O)C(O)C(O)C1O (stereo not given in full) | 0.146 µM [rising, full curve, poor fit] | –
Cc1cccc(NC(=O)C2CCCN2C(=O)Oc2ccccc2)c1 (stereo not given) | 29.1 µM [falling, single point] | –
COC(=O)[C@H](Cc1ccccc1)NC(=O)NCc1ccccc1OC | 20.6 µM [rising, single point] | –
CCOCCN1CCN(c2c(CC)c(C)nc3cc(-c4cc(OC)cc(OC)c4)nn23)CC1 | 14.6 µM [falling, partial curve] | 2.31 µM [falling, partial curve, poor fit]
CCC(C(=O)NCCC(C)C)n1ccc2cc(S(=O)(=O)N3CCCCC3)ccc21 (stereo not given) | 35.5 µM [falling, single point] | –
O=C1CSC(=S)N1c1cccc(O)c1 | 20 µM [falling, single point] | –

Random excerpt: 2 records from the list
Compound | AC50 [1] | AC50 [2]
CCOC(=O)N1CCC(=NNC(=O)COc2ccc(OC)cc2)CC1 | 14.6 µM [falling, partial curve, poor fit] | –
Cc1cc(N2CCN(c3ccccn3)CC2)n2cc(-c3ccccc3)nc2n1 | 9.2 µM [falling, single point] | –
